Measured values published in PubChem BioAssay AID2551 (National Center for Advancing Translational Sciences (NCATS), 2010).
Out of some 310,000 compounds screened, about 17,000 (5.5%) were called active. The shares of active, inactive and inconclusive entries below differ from those in the screen. Calls follow the shape of the dose curve; as a rule, active = well fitted inhibition curve with a large enough effect; inconclusive = small, poorly fitted or top-dose-only effect, or effect the other way; inactive = no such curve, though single readings can be large or run the other way. Where the call is inconclusive, the potency comes from a doubtful curve fit.

Sequences of proteins named here, by UniProt entry; tags and fusion partners are left off. A change or cut given only in a name is not applied to a line headed by its entry.
UniProt P51450: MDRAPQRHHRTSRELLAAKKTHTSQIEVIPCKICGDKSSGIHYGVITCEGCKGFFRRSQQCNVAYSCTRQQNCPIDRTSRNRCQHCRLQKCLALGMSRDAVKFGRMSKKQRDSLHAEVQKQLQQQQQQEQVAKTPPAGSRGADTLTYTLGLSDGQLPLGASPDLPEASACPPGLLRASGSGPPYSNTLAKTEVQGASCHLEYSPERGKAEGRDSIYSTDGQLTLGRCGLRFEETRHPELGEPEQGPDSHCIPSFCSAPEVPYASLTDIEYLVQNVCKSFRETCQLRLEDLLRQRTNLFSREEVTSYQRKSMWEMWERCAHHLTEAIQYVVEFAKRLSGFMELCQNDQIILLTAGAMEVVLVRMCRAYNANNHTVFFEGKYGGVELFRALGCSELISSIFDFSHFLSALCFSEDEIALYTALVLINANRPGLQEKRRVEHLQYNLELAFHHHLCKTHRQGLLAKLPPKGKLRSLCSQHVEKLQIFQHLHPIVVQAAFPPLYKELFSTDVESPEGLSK

target: Nuclear receptor ROR-gamma (Mus musculus) (UniProt P51450); experiment: qHTS for inhibitors of ROR gamma transcriptional activity; conditions: Drosophila S2 Gal4-RORgamma UAS-luciferase reporter, 20 h; activity change, negative = inhibition: at 53.6 µM (top of the series); also: nearly all actives have a fitted effect of over 60% in size
Summary of the method: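 Read-out: Photinus luciferase luminescence; inhibitors lower reporter signal. Insect Schneider cells with Gal4-ROR gamma fusion under metallothionein promoter, UAS reporter; 700 uM final copper sulfate induction, 20 hr, ambient temperature.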
% is scaled to controls: 0 for no effect and ±100 for the full control effect; potency is read from the fitted curve at half-maximal effect.

Row | Structure (SMILES) | Potency | activity change, negative = inhibition
1 | Cc1ccc(NC(=S)N2CCN(c3nccc(C(F)(F)F)n3)CC2)c(C)c1 | inconclusive: 7.08 µM [inhibitor, partial curve] | 
2 | Cc1cc(C)c(S(=O)(=O)Nc2ccc(O)cc2)cc1C | inconclusive: 35.5 µM [activator, single point] | 
3 | O=C(O)c1ccc(N/N=C/C=C/c2ccccc2)cc1 | active: 11.2 µM | 
4 | CCNC(=S)N/N=C/c1ccc(OCCOc2ccccc2C)cc1 | active: 4.47 µM | 
5 | COc1ccc(C2(c3ccc(OC)cc3)NC(=O)N(CC(=O)N(C)c3ccccc3)C2=O)cc1 | inconclusive: 11.2 µM [activator, partial curve] | 
6 | COc1ccc(-c2ccc(-c3nnn(CC(=O)N4CCOCC4)n3)cc2)cc1 | inconclusive: 0.251 µM [activator, full curve, poor fit] | 
7 | CC(=O)N1CCN(c2ccc(NC(=O)c3ccc(C)c([N+](=O)[O-])c3)cc2)CC1 |  | inactive: 12%
8 | CC(C)(C)c1ccc(-c2cn(-c3ccc(Br)cc3)c3[n+]2CCCS3)cc1 | active: 7.08 µM | 
9 | CC1Cc2ccccc2N1CC(=O)c1c(N)n(Cc2ccccc2)c(=O)n(C)c1=O (stereo not given) | inconclusive: 35.5 µM [activator, single point] | 
10 | O=C(Oc1cccnc1)c1ccc(Cl)c(Cl)c1 | inconclusive: 20 µM [inhibitor, single point] | 
11 | COc1ccc(S(=O)(=O)N2CCN(c3ccc(C)cc3C)CC2)cc1OC | inconclusive: 31.6 µM [activator, single point] | 
12 | O=C(NCC(=O)N(c1ccc2c(c1)OCCO2)C(C(=O)NC1CCCC1)c1ccco1)c1ccco1 (stereo not given) | inconclusive: 11.2 µM [activator, single point] | 
13 | COc1ccccc1CNc1ccnc(-c2ccc3c(c2)OCO3)n1 | inconclusive: 11.2 µM [activator, partial curve] | 
14 | COCCC1CCCCN1C(=O)c1cc(COc2ccc(C)nc2)on1 (stereo not given) | inconclusive: 11.2 µM [activator, partial curve] | 
15 | O=C(c1ccccc1-c1nc(-c2ccccc2)no1)N1CCCC1 | inconclusive: 12.6 µM [activator, single point] | 
16 | CCCCn1c(=O)c(CCC(=O)OC(C)C(=O)Nc2cccc(Cl)c2Cl)nc2ccccc21 (stereo not given) | inconclusive: 7.08 µM [activator, full curve] | 
17 | Nc1ncnc2nc(SCCc3ccccc3)[nH]c12 | inconclusive: 2.51 µM [inhibitor, single point] | 
18 | N#C/C(=C/c1ccc(-c2ccccc2)o1)c1nc(-c2cccs2)cs1 | inconclusive: 0.0282 µM [inhibitor, full curve, poor fit] | 
19 | COC(=O)c1ccc(CSCc2ccc(C#N)cc2)cc1 |  | inactive: 9.33%
20 | Oc1cccc(NC(=S)Nc2ccc(SC(F)F)cc2)c1 |  | inactive: -9.8%
21 | O=[N+]([O-])c1ccc(C(=S)N2CCCC2)cc1 |  | inactive: 7.27%
22 | CCCC(=O)NC(c1ccco1)c1cc([N+](=O)[O-])c2cccnc2c1O (stereo not given) | active: 5.62 µM | 
23 | C#CCOc1nc(C)cc(C)c1S(=O)(=O)c1ccccc1C | inconclusive: 10 µM [activator, partial curve] | 

As a short view, part of the list above.
Row | Structure (SMILES) | Potency | activity change, negative = inhibition
20 | Oc1cccc(NC(=S)Nc2ccc(SC(F)F)cc2)c1 |  | inactive: -9.8%
21 | O=[N+]([O-])c1ccc(C(=S)N2CCCC2)cc1 |  | inactive: 7.27%
22 | CCCC(=O)NC(c1ccco1)c1cc([N+](=O)[O-])c2cccnc2c1O (stereo not given) | active: 5.62 µM | 

Next part.

Row | Structure (SMILES) | Potency | activity change, negative = inhibition
24 | O=C(CSC1=Nc2ccccc2C2=NC(Cc3c[nH]c4ccccc34)C(=O)N12)NC1CCCCC1 (stereo not given) |  | inactive: 1.55%
25 | COc1cccc(CC(=O)Nc2nc3ccccc3[nH]2)c1 | inconclusive: 2.51 µM [inhibitor, full curve, poor fit] | 
26 | CCOC(=O)N1CCN(S(=O)(=O)c2ccc(C(=O)NNc3nc4c(C)cccc4s3)cc2)CC1 | active: 10 µM | 
27 | O=C(NC1CCc2ccccc21)c1cc(COc2c(F)cccc2F)on1 (stereo not given) |  | inactive: 33.6%
28 | CCOC(=O)C1=C(C)c2ccccc2N(C(=O)OC)C1(C)C(=O)OCC (stereo not given) | inconclusive: 10 µM [inhibitor, single point] | 
29 | COc1cccc2nc3cc(C)c(C)cc3nc12 | active: 10 µM | 
30 | COc1cc2c(cc1NC(=O)C(C)Sc1cccc[n+]1[O-])oc1ccccc12 (stereo not given) | inconclusive: 17.8 µM [activator, single point] | 
31 | CC12CCC=CC1C(c1ccc3ccccc3c1)N(Cc1ccccc1)C2=O (stereo not given) | inconclusive: 14.1 µM [activator, single point] | 
32 | Cc1cc(C)c2nc(-c3ccccn3)cc(C(=O)NCCc3ccc(S(N)(=O)=O)cc3)c2c1 | inconclusive: 35.5 µM [inhibitor, single point] | 
33 | COc1ccccc1/C=C\C=N\NC(=O)c1ccco1 | inconclusive: 35.5 µM [inhibitor, single point] | 
34 | Cc1[nH]c2ccccc2c1/C=C/C(=O)c1ccncc1 |  | inactive: 12.4%
35 | O=C(Nc1ccc2c(c1)OCO2)C1CC(c2ccccc2O)=NO1 (stereo not given) | active: 1.58 µM | 
36 | COc1cc(/C=N/NS(=O)(=O)c2ccc(C)c([N+](=O)[O-])c2)cc([N+](=O)[O-])c1O | inconclusive: 1.26 µM [activator, single point] | 
37 | CCNc1nc(NCC)nc(SCCOc2ccc(C)cc2)n1 | inconclusive: 35.5 µM [inhibitor, single point] | 
38 | NC(=O)C1CC(=O)N(c2ccc(OCc3ccc(Cl)cc3)cc2)C1 (stereo not given) |  | inactive: 7.61%
39 | CN(C)c1ccc(-c2nccc(Nc3ccc(F)cc3)n2)cc1 | inconclusive: 35.5 µM [inhibitor, single point] | 
40 | Brc1ccc(C=Nc2ccc(Nc3ccccc3)cc2)s1 | inconclusive: 10 µM [inhibitor, partial curve, poor fit] | 
41 | O=C(N/N=C\c1cn[nH]c1-c1ccc(Cl)cc1)c1cccs1 | inconclusive: 25.1 µM [inhibitor, single point] | 
42 | COc1ccc(/C=C2/SC(=O)N(CCC(=O)Nc3ccccc3)C2=O)cc1OC | inconclusive: 11.2 µM [activator, single point] | 
43 | O=C(c1ccccc1Br)N1CCN(c2ccccc2)CC1 |  | inactive: -21.9%
44 | COC(=O)C1=C(C)N(Cc2ccccc2)C(=NCc2ccccc2)N[C@H]1c1cccc(F)c1 | inconclusive: 22.4 µM [inhibitor, single point] | 
45 | Cc1ccc(C)c(S(=O)(=O)Nc2nc(C)c(C(=O)Nc3ccccc3)s2)c1 | inconclusive: 20 µM [activator, single point] | 
